{"source": "PubChem BioAssay AID1259308 (NCATS, 2017)", "screen": "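Genes whose loss raises luciferase production in HEK293 cells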 (primary screen)", "system": "human HEK293 embryonic kidney cells stably expressing firefly luciferase (HEK-CMV-Luc2-Hygro)", "reagents": "single siRNA against human genes, 0.8 pmol siRNA per well", "timing": "72 h", "read-out": "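Luciferase light (ONE-Glo) measured on one replicate plate set and viability (CellTiter-Glo) on the other, scaled to a negative control siRNA, with robust z-scores and luciferase per cell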", "scale": "total luciferase, z-score: higher = more reporter protein produced", "active means": "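An siRNA counts as active if its total luciferase robust z-score exceeds 3; genes with two or more such siRNAs out of three were retested with fresh siRNAs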", "meaning of the calls": "active = raised luciferase; inactive = no rise", "note": "In all, the deposit lists about 59,000 reagents; below is an unselected part. In the full data, about 1,510 (2.6%) were called active. 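Calls use total luciferase alone and ignore viability, so some active siRNAs may act by altering cell number.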 The numbers tell different reagents against one gene apart. Further read-outs or replicates are left out here. No sequences are given here."}
{"gene": "PRSS48", "reagent no.": 1, "total luciferase, z-score": -1.45, "activity call": "inactive"}
{"gene": "PRSS48", "reagent no.": 2, "total luciferase, z-score": 0.354, "activity call": "inactive"}
{"gene": "PRSS48", "reagent no.": 3, "total luciferase, z-score": 0.287, "activity call": "inactive"}
{"gene": "GPR174", "reagent no.": 1, "total luciferase, z-score": -0.485, "activity call": "inactive"}
{"gene": "GPR174", "reagent no.": 2, "total luciferase, z-score": -0.531, "activity call": "inactive"}
{"gene": "GPR174", "reagent no.": 3, "total luciferase, z-score": 0.0604, "activity call": "inactive"}
{"gene": "OR10AD1", "reagent no.": 1, "total luciferase, z-score": -0.0297, "activity call": "inactive"}
{"gene": "OR10AD1", "reagent no.": 2, "total luciferase, z-score": 3.78, "activity call": "active"}
{"gene": "OR10AD1", "reagent no.": 3, "total luciferase, z-score": -0.439, "activity call": "inactive"}
{"gene": "RBM10", "reagent no.": 1, "total luciferase, z-score": -1.8, "activity call": "inactive"}
{"gene": "RBM10", "reagent no.": 2, "total luciferase, z-score": 1.24, "activity call": "inactive"}
{"gene": "RBM10", "reagent no.": 3, "total luciferase, z-score": -0.458, "activity call": "inactive"}
